Experimental data as given in article PMC8502343.
No constants are given. Whether binding was seen depends on the method and setting. Binding seen in cells or lysates may run through a third protein. Some results given as binding are weak or reduced against the parent protein; the word gives no strength.

Chains of the proteins cited; added tags and fusions are not shown.
UniProt P15311: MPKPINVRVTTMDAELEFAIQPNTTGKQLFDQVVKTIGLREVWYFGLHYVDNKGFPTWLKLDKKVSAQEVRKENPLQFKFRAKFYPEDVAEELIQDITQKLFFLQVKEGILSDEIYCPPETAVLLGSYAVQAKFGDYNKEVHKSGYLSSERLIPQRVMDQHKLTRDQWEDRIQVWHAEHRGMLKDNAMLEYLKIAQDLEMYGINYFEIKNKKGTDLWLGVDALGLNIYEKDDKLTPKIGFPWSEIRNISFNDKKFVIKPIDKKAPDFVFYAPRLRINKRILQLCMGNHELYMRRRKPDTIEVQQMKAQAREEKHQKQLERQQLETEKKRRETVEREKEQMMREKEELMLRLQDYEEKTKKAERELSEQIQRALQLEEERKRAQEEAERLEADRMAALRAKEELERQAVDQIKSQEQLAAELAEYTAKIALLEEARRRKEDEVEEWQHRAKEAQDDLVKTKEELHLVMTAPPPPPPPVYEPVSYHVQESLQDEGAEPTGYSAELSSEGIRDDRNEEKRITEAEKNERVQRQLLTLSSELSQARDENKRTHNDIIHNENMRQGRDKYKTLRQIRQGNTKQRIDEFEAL
UniProt Q05397: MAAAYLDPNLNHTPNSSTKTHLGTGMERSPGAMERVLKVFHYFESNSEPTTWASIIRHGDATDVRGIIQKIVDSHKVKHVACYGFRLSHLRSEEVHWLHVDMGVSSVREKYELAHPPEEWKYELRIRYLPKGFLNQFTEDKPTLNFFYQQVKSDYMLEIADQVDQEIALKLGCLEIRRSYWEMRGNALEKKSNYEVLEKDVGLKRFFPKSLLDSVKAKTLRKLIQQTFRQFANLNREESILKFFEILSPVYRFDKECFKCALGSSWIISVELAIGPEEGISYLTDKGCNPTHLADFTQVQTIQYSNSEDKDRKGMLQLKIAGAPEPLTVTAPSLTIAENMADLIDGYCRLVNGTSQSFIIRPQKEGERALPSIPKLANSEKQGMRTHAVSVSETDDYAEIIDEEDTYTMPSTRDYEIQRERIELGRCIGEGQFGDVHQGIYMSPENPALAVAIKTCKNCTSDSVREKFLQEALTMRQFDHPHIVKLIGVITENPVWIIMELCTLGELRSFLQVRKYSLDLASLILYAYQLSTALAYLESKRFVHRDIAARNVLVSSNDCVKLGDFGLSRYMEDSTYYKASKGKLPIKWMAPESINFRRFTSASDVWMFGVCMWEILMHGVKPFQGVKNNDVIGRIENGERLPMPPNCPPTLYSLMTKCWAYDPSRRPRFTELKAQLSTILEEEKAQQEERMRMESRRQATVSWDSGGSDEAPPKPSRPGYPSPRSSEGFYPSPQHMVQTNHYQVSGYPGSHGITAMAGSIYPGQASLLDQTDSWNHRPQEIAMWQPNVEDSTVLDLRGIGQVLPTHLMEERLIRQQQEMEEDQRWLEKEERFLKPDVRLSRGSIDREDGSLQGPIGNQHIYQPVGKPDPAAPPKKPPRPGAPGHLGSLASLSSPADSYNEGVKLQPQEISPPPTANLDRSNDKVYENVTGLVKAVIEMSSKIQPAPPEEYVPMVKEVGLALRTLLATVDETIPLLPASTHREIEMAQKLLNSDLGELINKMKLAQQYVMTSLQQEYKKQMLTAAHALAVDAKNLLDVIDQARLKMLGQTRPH

Biological target: Ezrin (EZR) (human (endogenous in PC cells)) (UniProt P15311)
Assay: co-IP; PC cells lysed in RIPA; supernatant incubated with primary antibody (or IgG) and Protein G agarose; Western blot; which protein was precipitated not given

- binding: binds
Substance: FAK (from UniProt Q05397 1-1052)
